Measured values taken from article PMC12828796.

Amino acid sequences for entries named in this document (tags omitted). A change or cut given only in a name is not applied to a line headed by its entry.
UniProt O15205: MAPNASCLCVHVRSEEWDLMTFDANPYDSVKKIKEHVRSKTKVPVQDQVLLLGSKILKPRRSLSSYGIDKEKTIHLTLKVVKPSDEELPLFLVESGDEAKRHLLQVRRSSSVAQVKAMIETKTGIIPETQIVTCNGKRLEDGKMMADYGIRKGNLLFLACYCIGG
UniProt P08254: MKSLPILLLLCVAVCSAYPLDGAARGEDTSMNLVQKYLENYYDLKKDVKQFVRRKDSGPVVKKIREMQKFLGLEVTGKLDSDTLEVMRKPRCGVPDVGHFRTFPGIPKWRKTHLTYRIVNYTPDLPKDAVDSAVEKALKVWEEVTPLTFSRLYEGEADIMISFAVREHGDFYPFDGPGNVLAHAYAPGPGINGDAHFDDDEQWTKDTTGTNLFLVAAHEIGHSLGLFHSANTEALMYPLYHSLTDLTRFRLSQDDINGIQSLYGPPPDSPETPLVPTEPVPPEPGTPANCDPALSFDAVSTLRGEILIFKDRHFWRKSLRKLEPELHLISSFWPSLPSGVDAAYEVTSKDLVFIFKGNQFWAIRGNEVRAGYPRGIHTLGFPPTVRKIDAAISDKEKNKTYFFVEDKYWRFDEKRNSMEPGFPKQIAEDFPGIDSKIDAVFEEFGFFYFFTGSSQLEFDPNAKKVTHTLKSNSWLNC

Molecular target: ubiquitin D (UBD), Flag-tagged (UniProt O15205)
Assay: affinity purification with mass spectrometry; Flag-tagged UBD expressed in cells for 48 h; lysate supernatant incubated with Flag-agarose beads overnight at 4 °C, rinsed 3 times with 1× lysis buffer; SDS-PAGE, silver staining, LC-MS/MS

binding: binds
Substance: matrix metalloproteinase 3 (MMP3) (from UniProt P08254)

Results are given in words; binding and its absence hold for the method and conditions named. Binding seen in cells or lysates may run through a third protein. These calls come from enrichment with a bait or labelling near it, and not all partners need be listed.
